{
  "source": "patent US7972793B2",
  "about": "“Methods and compositions for the treatment of psychotic disorders through the identification of the SULT4A1-1 haplotype” (Suregene, LLC, priority 2009, dated 2011)",
  "key": {"[1]": {"test_system": "CATIE patients", "assay": "Kaplan-Meier survival (no hospitalization event) analysis, SULT4A1-1 negative vs positive", "format": "in vivo, human", "conditions": "FIG. 8", "method": "A Kaplan-Meier survival analysis was performed to determine whether there was a difference between the survival (hospitalization) rates for the SULT4A1-1 negative and SULT4A1-1 positive patient populations treated with each of the atypical antipsychotics. Survival plots model the fraction of the population that survived (i.e., no hospitalization event) as a function of time."}, "[2]": {"test_system": "patients, populations not segmented by SULT4A1-1 status", "conditions": "meta-analysis, Leucht et al. (2009); negative = greater reduction in PANSS; cited from earlier work"}, "[3]": {"test_system": "patients, unsegmented populations", "conditions": "first generation antipsychotics; Davis et al. (2003); cited from earlier work"}},
  "note": "At least one structure is not confirmed: it was looked up by name or label, or the drawing left a doubt.",
  "data": [
    {"smiles": "Cc1cc2c(s1)Nc1ccccc1N=C2N1CCN(C)CC1", "note": "[Olanzapine]", "values": [
      {"measurement": "Difference between survival (no hospitalization) rates of SULT4A1-1 negative and SULT4A1-1 positive patients", "setting": "[1]", "result": "significant difference"},
      {"measurement": "Effect Size vs. Placebo", "setting": "[2]", "result": "−0.59"},
      {"measurement": "Effect Size vs. FGA", "setting": "[3]", "result": "−0.21"}
    ]}
  ]
}
